Source: PubChem BioAssay AID504834 (National Center for Advancing Translational Sciences (NCATS), 2011)
Out of some 320,000 compounds screened, about 22,000 (6.9%) were called active. The shares of active, inactive and inconclusive entries below differ from those in the screen. The call rests on the fitted dose curve; in most records, active means well fitted inhibition curve with a large enough effect; inconclusive means small, poorly fitted or top-dose-only effect, or another doubt; inactive means no such curve, though single readings can be large or run the other way. Potencies of inconclusive entries are doubtful fits and often do not repeat.
On the % scale 0 is the no-effect control and ±100 the full control effect; potency means the concentration at half of the fitted maximal effect.

Test: Primary qHTS for delayed death inhibitors of the malarial parasite plastid, 96 hour incubation
Details: P. falciparum luciferase reporter growth; series mostly up to 28.7 µM; activity change, negative = inhibition: at the top concentration
Outline: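 Luminescence readout: decreased luciferase signal marks inhibited growth of reporter-expressing P. falciparum in infected red cells (2% hematocrit, 0.05% parasitemia final), exposed to compound two generations (96 h, 37 C, 5% CO2).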
For `CN(CCOc1ccc(Cl)cc1)C(=O)C1CCN(C(=O)c2ccc(Cl)cc2)CC1`, the Potency was inconclusive: 7.38 µM [inhibitor, partial curve]. For `Cc1cc(C)n2ncc(C(=O)NCc3ccc(Cl)cc3)c2n1`, the Potency was inconclusive: 3.29 µM [inhibitor, single point]. With `CC(=O)Nc1ccc(NC(=O)COc2ccc(S(=O)(=O)N3CCCC3)cc2C)cc1` the Potency was inconclusive: 11.7 µM [inhibitor, partial curve]. For `COc1cccc(NC(=O)CN(C)C(=O)COc2ccccc2Cc2ccccc2)c1`, the Potency was active: 5.22 µM. With `COC(=O)COn1c(SCC(=O)OC)nc2ccccc2c1=O` the Potency was inconclusive: 13.1 µM [inhibitor, single point]. In the case of `Cc1ccc(C(=O)N/N=C\c2cc3c(cc2Br)OCO3)s1`, the Potency is reported as inconclusive: 2.62 µM [inhibitor, single point]. In the case of `CCN1CCN(c2ccc(NC(=O)CCc3c(C)nc4c(-c5ccc(F)cc5)c(C)nn4c3C)cc2)CC1`, the Potency is reported as inconclusive: 9.28 µM [inhibitor, single point]. For `Cc1nc(-c2ccc(F)cc2)c(CC(=O)N2CCN(S(=O)(=O)c3cccc(Cl)c3)CC2)s1`, the “activity change, negative = inhibition” value was inactive: 6.19%. With `CC(C)OC(=O)CSc1nnc(-c2ccc([N+](=O)[O-])cc2)o1` the Potency was inconclusive: 11.7 µM [inhibitor, single point]. In the case of `COc1cccc(/C=N/NC(=O)C(=O)NCc2ccco2)c1OC`, the Potency is reported as inconclusive: 18.5 µM [inhibitor, single point]. With `O=C(CN1CCSC1=O)N1CCN(S(=O)(=O)c2ccc(Cl)cc2)CC1` the Potency was inconclusive: 20.8 µM [inhibitor, partial curve, poor fit]. With `COC(=O)c1cccc(NC(=O)CCNC(=O)c2ccc([N+](=O)[O-])cc2)c1` the “activity change, negative = inhibition” value was inactive: -47.8%. In the case of `CCCN1CCC(=O)N(CCN=[N+]=[N-])CC1`, the “activity change, negative = inhibition” value is reported as inactive: -7.17%. In the case of `O=C(NCc1ccc(F)cc1)c1cc(-c2ccncc2)nc2ccccc12`, the Potency is reported as inconclusive: 4.15 µM [inhibitor, partial curve, poor fit]. For `N#CCC(=O)Nc1ccc(C(=O)OCC(=O)c2ccc3c(c2)OCO3)cc1`, the Potency was inconclusive: 10.4 µM [inhibitor, single point]. In the case of `COc1ccc(N(C(=O)c2ccc(Cl)cc2)C2=CC3CCC(C2)N3C)cc1` (configuration not stated), the Potency is reported as inconclusive: 1.17 µM [inhibitor, partial curve, poor fit]. With `O=C(O)CCCCCNC(=O)c1ccccc1` the “activity change, negative = inhibition” value was inactive: 3.91%. With `COc1cc(CNS(=O)(=O)c2ccc3c(c2)CC(C)N3C(C)=O)cc(OC)c1OC` (configuration not stated) the Potency was active: 5.86 µM. For `c1ccc(CCNc2ncnc3scc(C4COc5ccccc5O4)c23)cc1` (configuration not stated), the Potency was active: 14.7 µM. In the case of `COc1ccc(-c2csc(NC(=O)c3cccc(S(=O)(=O)N4CCN(C)CC4)c3)n2)cc1`, the Potency is reported as active: 11.7 µM. With `CCOC(=O)C1=C(O)C(=O)NC(c2ccccc2)=C(OC2CCCCC2)C1` the Potency was inconclusive: 14.7 µM [inhibitor, single point]. With `CCOc1ccc2nc(SCC(=O)NC3CCCc4ccccc43)sc2c1` (configuration not stated) the Potency was inconclusive: 18.5 µM [inhibitor, single point]. For `CCS(=O)(=O)N1CCC(NC(=O)C2CCCCC2)CC1`, the Potency was inconclusive: 14.7 µM [inhibitor, partial curve, poor fit]. For `COc1ccc(Cl)cc1NC(=O)c1cc(-c2cc(C)ccc2O)n[nH]1`, the Potency was active: 2.33 µM. In the case of `CCOC(=O)CSC1=NC(=O)CS1`, the “activity change, negative = inhibition” value is reported as inactive: 30.6%. In the case of `Cn1c(=O)cc(SCC(=O)NCCC2=CCCCC2)c2ccc(Cl)cc21`, the Potency is reported as active: 14.7 µM. In the case of `CC(C)(C)c1cccc(C2(O)C(=O)c3ccccc3C2=O)c1O`, the Potency is reported as inconclusive: 11.7 µM [inhibitor, single point]. With `Cc1ccc(C(=O)NCCC(=O)Nc2ccccc2C)cc1` the “activity change, negative = inhibition” value was inactive: -4.7%. With `CCN(CC)CC(=O)Nc1ccccc1SCC(=O)Nc1ccsc1C(=O)OC` the Potency was inconclusive: 13.1 µM [inhibitor, single point]. For `CSc1nc(SCC(=O)O)c2c3c(sc2n1)COC(C)(C)C3`, the Potency was inconclusive: 0.0023 µM [inhibitor, full curve, poor fit]. With `Cc1ccnc(NS(=O)(=O)c2ccc(NC(=O)C3CCCCC3)cc2)n1` the Potency was inconclusive: 18.5 µM [inhibitor, single point]. For `Cc1[nH]n(-c2ccccc2)c(=O)c1N=Nc1ccccc1C(=O)N1CCOCC1`, the Potency was inconclusive: 10.4 µM [inhibitor, single point]. For `COC(=O)C1CCN(C(=O)COC(=O)CCc2nc3ccccc3c(=O)[nH]2)CC1`, the “activity change, negative = inhibition” value was inactive: 28.4%. With `Cc1ccc(C(=O)N/C(=C\c2ccc(C)o2)C(=O)O)cc1` the Potency was inconclusive: 13.1 µM [inhibitor, single point]. In the case of `COc1cc(C2SCCS2)cc(Br)c1Oc1ncccc1[N+](=O)[O-]`, the Potency is reported as inconclusive: 14.7 µM [inhibitor, single point]. For `Cc1cc(C)n2c(SCc3ccccc3Cl)nnc2n1`, the Potency was inconclusive: 2.62 µM [inhibitor, single point]. In the case of `Cc1csc2nc(O)c(C(=O)NC3CCCCC3)c(=O)n12`, the Potency is reported as active: 5.86 µM. With `Cc1ccc(C)c(NC(=O)CCOc2ccccc2)c1` the Potency was inconclusive: 1.47 µM [inhibitor, full curve, poor fit]. With `CS(=O)(=O)c1ccc([C@@H](O)[C@@H](CF)NC(=O)C(Cl)Cl)cc1` the Potency was active: 3.29 µM. With `CN1C(=O)C(=Cc2ccccc2OCc2ccc(C(=O)O)cc2)C(=O)N(C)C1=O` the Potency was inconclusive: 2.62 µM [inhibitor, single point]. For `COc1cccc(C(=O)NNC(=O)c2ccccc2)c1`, the Potency was inconclusive: 18.5 µM [inhibitor, single point]. In the case of `CSc1sc(C)cc1C1C(C#N)=C(N)N(c2cccnc2)C2=C1C(=O)CCC2` (configuration not stated), the Potency is reported as inconclusive: 20.8 µM [inhibitor, partial curve, poor fit]. For `COc1cccc(Nc2cc(C)nc3ccccc23)c1`, the “activity change, negative = inhibition” value was inactive: 1.65%. With `CCC(CC)c1nnc(NC(=O)C2CCCO2)s1` (configuration not stated) the Potency was inconclusive: 18.5 µM [inhibitor, single point]. In the case of `CSCCC(NC(=O)c1ccco1)c1nc2ccccc2[nH]1` (configuration not stated), the “activity change, negative = inhibition” value is reported as inactive: -29.9%. With `Nc1cccc(NC(=O)CCC(=O)NCc2ccco2)c1` the Potency was inconclusive: 11.7 µM [inhibitor, partial curve, poor fit]. In the case of `COc1ccc(S(=O)(=O)N2CCCCC2)cc1NC(=O)C1CC1`, the Potency is reported as inconclusive: 11.7 µM [inhibitor, single point]. With `COc1ccc(CCNC(=O)CSc2nnc3ccccn23)cc1` the “activity change, negative = inhibition” value was inactive: 6.52%. For `N=c1c(S(=O)(=O)c2ccc(Cl)cc2)cc2c(=O)n3ccccc3nc2n1C1CCCCC1`, the Potency was inconclusive: 6.57 µM [inhibitor, partial curve]. For `Cc1oc(-c2cc3c(cc2Cl)OCO3)nc1CN1CCCC(C(=O)N2CCOCC2)C1` (configuration not stated), the Potency was inconclusive: 8.28 µM [inhibitor, partial curve]. For `Cc1cc(C(=O)CSc2nnc(-c3ccc(F)cc3)o2)c(C)n1CC1COc2ccccc2O1` (configuration not stated), the Potency was inconclusive: 18.5 µM [inhibitor, single point]. For `O=C(CNC(=O)c1ccccc1)Nc1ccsc1C(=O)O`, the Potency was inconclusive: 18.5 µM [inhibitor, single point]. For `O=C(O)c1cc(-c2ccc(-c3c(-c4ccc5c(c4)OCO5)noc3-c3ccsc3)cc2)nc2ccccc12`, the Potency was inconclusive: 9.28 µM [inhibitor, single point]. In the case of `CCC(C)NC(=O)C1c2cc(OC)c(OC)cc2C(=O)N(C)C1c1ccc(OC)cc1` (configuration not stated), the Potency is reported as inconclusive: 4.15 µM [inhibitor, partial curve, poor fit]. In the case of `COc1ccc(CCN2C(=O)/C(=C\c3ccco3)SC2=S)cc1OC`, the Potency is reported as inconclusive: 18.5 µM [inhibitor, single point]. With `CCOC(=O)C1=C(C)Nc2ccccc2N=C1NC(=O)Cc1ccc(OC)cc1` the Potency was inconclusive: 18.5 µM [inhibitor, single point]. For `COC(=O)c1ccc(NC(=O)c2ccccc2NS(=O)(=O)c2ccccc2)cc1`, the Potency was inconclusive: 14.7 µM [inhibitor, partial curve, poor fit]. For `CC1CCN(C(=O)CCNS(=O)(=O)c2ccc(Cl)cc2)CC1`, the “activity change, negative = inhibition” value was inactive: 39.3%. With `CC(=O)c1cccc(NC(=O)NCc2ccc3c(c2)OCO3)c1` the Potency was active: 3.7 µM. With `CC(=O)N1CCc2cc(S(=O)(=O)CCC(=O)N3CCN(C(=O)c4ccco4)CC3)ccc21` the Potency was inconclusive: 0.0928 µM [inhibitor, full curve, poor fit]. With `O=S(=O)(NCC1CCC(NS(=O)(=O)c2c(F)cccc2F)CC1)c1ccc2c(c1)OCCO2` (configuration not stated) the Potency was inconclusive: 18.5 µM [inhibitor, single point]. For `O=C(c1cccnc1)N1CCN(Cc2ccc3ccccc3c2)CC1`, the Potency was inconclusive: 2.94 µM [inhibitor, full curve]. For `CCC(=O)Nc1cc(=O)[nH]c2nc(-c3ccc(Cl)cc3)nn12`, the Potency was inconclusive: 0.131 µM [inhibitor, full curve]. In the case of `Cc1ccc(-n2cc(C(=O)c3cc(Cl)ccc3O)cc(C#N)c2=O)cc1`, the Potency is reported as inconclusive: 1.85 µM [inhibitor, full curve, poor fit]. With `CCOc1cccc(C(=O)Nc2cc(C)ccc2NC(=O)c2ccco2)c1` the Potency was inconclusive: 9.28 µM [inhibitor, partial curve, poor fit]. With `CN(c1ccccc1)S(=O)(=O)c1cccc(NC(=O)CSc2ncc(C(F)(F)F)cc2Cl)c1` the “activity change, negative = inhibition” value was inactive: 8.15%. For `O=C(c1ccc([N+](=O)[O-])o1)N1CCN(Cc2ccccc2)CC1`, the Potency was inconclusive: 18.5 µM [inhibitor, single point].
